Results from the supplement of paper PMC5770031.
The other results are listed elsewhere or left out. Repeats in this data set agree poorly, so a single value says little.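 Flies heterozygous for the ATM8 allele over a balancer chromosome carrying normal ATM were mated with each other on treated food. Parents laid eggs for 5–6 days and the young then developed for about 12 days, so both parents and larvae ate the compound. The read-out is the share of all emerged adults that carry two ATM8 copies, compared with 2% DMSO control vials. The paper called compounds neutral at 10–20% such offspring, harmful below 10%, and helpful above 20%.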

tested on: Drosophila melanogaster ATM8 (temperature-sensitive ATM allele); assay: fraction of eclosed F1 progeny that are homozygous ATM8 (rescue of developmental lethality); higher = more rescue of ATM8 developmental lethality; extreme values may be limits of the assay; conditions: compound concentration applied to food 0.2 mM; 21 °C

SMILES	fraction of eclosed F1 progeny that are homozygous ATM8
CCN(Cc1ccncc1)C(=O)C(CO)c1ccccc1 (stereo not given)	0.139
Cc1ncc([N+](=O)[O-])n1CCO	0.171
OC(CCN1CCCCC1)(c1ccccc1)C1CC2C=CC1C2 (stereo not given)	0.0408
CC(=O)O[C@H]1CC[C@@]2(C)[C@H](CC[C@@H]3[C@@H]2CC[C@]2(C)[C@@H]4[C@H](C[C@@H]32)O[C@]2(CC[C@@H](C)CO2)[C@H]4C)C1	0.139
C#CCN(C)Cc1ccccc1	0.119
C[C@H]1[C@@H](O)O[C@@H]2O[C@@]3(C)CC[C@H]4[C@H](C)CC[C@@H]1[C@@]24OO3	0.122
CC1=C2[C@H]3OC(=O)[C@@H](C)[C@@H]3CC[C@@]2(C)C=CC1=O	0.147
CCn1cc(C(=O)O)c(=O)c2ccc(C)nc21	0.0455
COc1ccc2cc(CCC(C)=O)ccc2c1	0.123
O=C(O)CCC(=O)OC[C@@H](NC(=O)C(Cl)Cl)[C@H](O)c1ccc([N+](=O)[O-])cc1	0.0526
CCCCCC(C)N (stereo not given)	0.0488
O=C(CCCN1CC=C(n2c(=O)[nH]c3ccccc32)CC1)c1ccc(F)cc1	0.115
CCN(CC)CCNC(=O)c1cc(S(C)(=O)=O)ccc1OC	0.104
CC1(C)C(=O)CC[C@@]2(C)C1C[C@@H](O)[C@@]1(C)C3=CC(=O)O[C@@H](c4ccoc4)[C@]3(C)CCC21 (stereo not given in full)	0.0625
Oc1c(I)cc(I)c2cccnc12	0.268
COc1cc2nc(N3CCN(C(=O)c4ccco4)CC3)nc(N)c2cc1OC	0.318
NCCS(=O)(=O)O	0
CCC(N)C(O)c1ccc(O)c(O)c1 (stereo not given)	0.273
CCn1cc(C(=O)O)c(=O)c2cnc(N3CCNCC3)nc21	0.0286
CC(=O)N[C@@H](CC(=O)N[C@@H](CCC(=O)O)C(=O)O)C(=O)O	0.0513
Cc1ccc(S(=O)(=O)NC(=O)NN2CC3CCCC3C2)cc1 (stereo not given)	0.143
O=c1c(O)cccc2cc(O)c(O)c(O)c12	0.0847

Quoted from the listing:
Entry for O=C(CCCN1CC=C(n2c(=O)[nH]c3ccccc32)CC1)c1ccc(F)cc1 under fraction of eclosed F1 progeny that are homozygous ATM8: 0.115
Entry for Oc1c(I)cc(I)c2cccnc12 under fraction of eclosed F1 progeny that are homozygous ATM8: 0.268
Entry for Cc1ncc([N+](=O)[O-])n1CCO under fraction of eclosed F1 progeny that are homozygous ATM8: 0.171
Entry for CC1(C)C(=O)CC[C@@]2(C)C1C[C@@H](O)[C@@]1(C)C3=CC(=O)O[C@@H](c4ccoc4)[C@]3(C)CCC21 (stereo not given in full) under fraction of eclosed F1 progeny that are homozygous ATM8: 0.0625
Entry for CCN(CC)CCNC(=O)c1cc(S(C)(=O)=O)ccc1OC under fraction of eclosed F1 progeny that are homozygous ATM8: 0.104

The list goes on:

SMILES	fraction of eclosed F1 progeny that are homozygous ATM8
O=C(O)c1cc2ccccc2[nH]1	0.167
O=c1c(O)c(-c2cc(O)c(O)c(O)c2)oc2cc(O)cc(O)c12	0.18
Nc1nc(=O)c2[nH]c(=O)cnc2[nH]1	0.0494
C=C1C[C@H]2[C@@H]3C=C(C)C4=CC(=O)CC[C@]4(C)[C@H]3CC[C@]2(C)[C@@]1(OC(C)=O)C(C)=O	0.0233
N[C@H]1C(O)O[C@H](CO)[C@@H](O)[C@@H]1O (stereo not given in full)	0.152
N=C(N)NC(=N)N1CCOCC1	0.0877
NC(C(=O)O)C(O)C(=O)O (stereo not drawn) [d,l-threo-3-HYDROXYASPARTIC ACID]	0.2
Cc1ncc(CSSCc2cnc(C)c(O)c2CO)c(CO)c1O	0.128
CC1NC(=O)NC1=O (stereo not given)	0.119
CC(=O)Oc1cccc2c1C(=O)c1c(OC(C)=O)cc(C(=O)O)cc1C2=O	0.244
N=C(N)NCC1COC2(CCCCC2)O1 (stereo not given)	0.0286
CC1(C)OC(=O)NC1=O	0.0857
Nc1ccc(C(=O)NCC(=O)O)cc1	0.172
COc1ccc(NS(=O)(=O)c2ccc(N)cc2)nn1	0.2
Cn1nnnc1SCC1=C(C(=O)O)N2C(=O)[C@@H](NC(=O)[C@H](O)c3ccccc3)[C@H]2SC1	0.149
CCC[C@H](N[C@@H](C)C(=O)N1[C@H](C(=O)O)C[C@@H]2CCCC[C@@H]21)C(=O)OCC	0.225
OCCN1CCN(CCCN2c3ccccc3Sc3ccc(Cl)cc32)CC1	0.333
CN(C)CCc1c[nH]c2ccc(Cn3cncn3)cc12	0.226
Nc1ccc(S(=O)(=O)c2ccc(N)cc2)cc1	0.0312
OC[C@H]1O[C@@H](Oc2ccc(O)cc2)[C@H](O)[C@@H](O)[C@@H]1O	0.172
CC1(C)C(C=C(Cl)Cl)C1C(=O)OC(C#N)c1cccc(Oc2ccccc2)c1 (stereo not given)	0.182
Oc1cc(Cl)ccc1Oc1ccc(Cl)cc1Cl	0.0455

SMILES	fraction of eclosed F1 progeny that are homozygous ATM8
CC(=O)Oc1cccc(O)c1	0.1
CCN1CCN(C(=O)N[C@@H](C(=O)N[C@@H]2C(=O)N3[C@@H]2SC(C)(C)[C@@H]3C(=O)O)c2ccccc2)C(=O)C1=O	0.119
CO[C@@H]1[C@@H](OC(N)=O)[C@@H](O)[C@H](Oc2ccc3c(O)c(NC(=O)c4ccc(O)c(CC=C(C)C)c4)c(=O)oc3c2C)OC1(C)C	0.176
O=C(NCO)c1cccnc1	0.143
CN1CCCCC1CCN1c2ccccc2Sc2ccc([S+](C)[O-])cc21 (stereo not given)	0.182
N=C(N)NCCC[C@@H](NC(=O)[C@@H](N)Cc1ccc(O)cc1)C(=O)O	0.113
O=C(O[C@H]1CN2CCC1CC2)N1CCc2ccccc2[C@@H]1c1ccccc1	0
NC(=O)N/N=C/c1ccc([N+](=O)[O-])o1	0.286
COc1c(-c2ccccc2)oc2cc(O)cc(O)c2c1=O	0.256
CCCC(=O)Nc1ncnc2c1ncn2[C@@H]1O[C@@H]2COP(=O)(O)O[C@H]2[C@H]1OC(=O)CCC	0.26
CC(=O)O[C@H]1CC[C@]2(C)C3=CC(=O)[C@@]4(C)C(C[C@@H]5OC6(OCC(C)CC6Br)[C@@H](C)[C@@H]54)C3CC[C@H]2C1 (stereo partly drawn) [3beta-ACETOXY-23-BROMO-ISOALLOSPIROST-9 (11)-ENE-12-ONE]	0.13
CC1=CC(=O)NS(=O)(=O)O1	0.186
O=c1c(-c2ccccc2)coc2ccccc12	0.243
O=C(CNC(=O)c1ccc(Cl)cc1)NO	0.0698
CN1CCCC(n2nc(Cc3ccc(Cl)cc3)c3ccccc3c2=O)CC1 (stereo not given)	0.282
CC(C)CCC[C@@H](C)[C@H]1CC[C@H]2[C@@H]3CC[C@H]4C[C@H](O)CC[C@]4(C)[C@H]3CC[C@]12C	0.116
CCOC(=O)[C@H](CCc1ccccc1)N[C@H]1CCc2ccccc2N(CC(=O)O)C1=O	0.326
O=C(N/N=C/c1ccc([N+](=O)[O-])o1)c1cc([N+](=O)[O-])cc([N+](=O)[O-])c1O	0.0333
C[C@]12CC[C@H]3[C@@H](CC[C@@]45O[C@@H]4C(O)=C(C#N)C[C@]35C)[C@@H]1CC[C@@H]2O	0.218
COC1=C(OC)C(=O)C(CCCCCCCCCCO)=C(C)C1=O	0.133
COc1cc(-c2coc3cc(O)c(OC)c(O)c3c2=O)cc(O)c1OC	0.188
CCOC(=O)OC(C)OC(=O)[C@@H]1N2C(=O)[C@@H](NC(=O)[C@H](N)c3ccccc3)[C@H]2SC1(C)C (stereo not given in full)	0.105

SMILES	fraction of eclosed F1 progeny that are homozygous ATM8
CO/N=C(\C(=O)N[C@@H]1C(=O)N2C(C(=O)O)=C(CSc3nc(=O)c(O)nn3C)CS[C@H]12)c1csc(N)n1	0.0625
NCCCC[C@H](N[C@@H](CCc1ccccc1)C(=O)O)C(=O)N1CCC[C@H]1C(=O)O	0.14
NC1(C(=O)O)CCCC1	0.0714
CC(C)(C)NC[C@H](O)COc1nsnc1N1CCOCC1	0.162
C[C@]12CCC(=O)C=C1CC[C@@H]1[C@@H]2[C@@H](O)C[C@@]2(C)[C@H]1CC[C@]2(O)C(=O)COC(=O)CCC(=O)O	0.0851
COc1ccc(Cc2nccc3cc(OC)c(OC)cc23)cc1OC	0.0488
c1ccc(C2CN3CCSC3=N2)cc1 (stereo not given)	0.0417
C=C1c2cccc(O)c2C(=O)C2=C(O)[C@]3(O)C(=O)C(C(N)=O)=C(O)[C@@H](N(C)C)[C@@H]3[C@@H](O)[C@H]12	0.0962
Cc1scc2c1N(C(=O)CN1CCN(C)CC1)c1ccccc1NC2=O	0.175
COc1cc(C(=O)O)cc(OC)c1O	0.0952
COc1cc2c(c(OC)c1OC)-c1ccc(=O)c(O)cc1[C@@H](NC(C)=O)CC2	0
CC(COc1ccccc1)N(CCCl)Cc1ccccc1 (stereo not given)	0.0455
Nc1ncn([C@@H]2O[C@H](CO)[C@@H](O)[C@H]2O)c(=O)n1	0.13
CCCNC(C)C(=O)Nc1ccccc1C (stereo not given)	0.194
CC(=O)c1ccc(S(=O)(=O)NC(=O)NC2CCCCC2)cc1	0.0244
O=C(NCc1ccccc1)OCCO	0.0676
OC[C@H]1O[C@H]([S-])[C@H](O)[C@@H](O)[C@@H]1O.[Au+]	0.229
CCC1(CC)C(=O)C=CNC1=O	0.148
Cc1nc2ccccc2n1Cc1ccc(Cl)cc1	0.111
Cc1cc(=O)oc2cc(O)ccc12	0.205
CN(C)CCN(Cc1cccs1)c1ccccn1	0.041
NC(CO)(CO)CO	0.156

2 entries from above, with bars between the fields:
SMILES | fraction of eclosed F1 progeny that are homozygous ATM8
Cc1scc2c1N(C(=O)CN1CCN(C)CC1)c1ccccc1NC2=O | 0.175
COc1cc(C(=O)O)cc(OC)c1O | 0.0952

Next part:

SMILES	fraction of eclosed F1 progeny that are homozygous ATM8
COc1ccc([C@H]2COc3c(ccc(O)c3OC)C2)c(OC)c1O	0.117
COc1ccc2c(c1)OCc1c-2oc2cc(OC)ccc12	0.0385
NCCC[C@H](N)C(=O)O	0.147
NC(=O)N1c2ccccc2C=Cc2ccccc21	0.0857
O=C(NC(=O)c1c(F)cccc1F)Nc1cc(Cl)c(OC(F)(F)C(F)C(F)(F)F)cc1Cl (stereo not given)	0.355
CNCC(=O)c1ccc(O)c(O)c1	0.2
CCOc1cccc(C(=O)c2ccc(O)c(O)c2O)c1	0.037
COc1cc2c(cc1OC)[C@H](C)NCC2	0.138
CC(=O)OCC(COC(C)=O)OC(C)=O	0.13
CC(C)(C)NCC(O)c1cc(Cl)c(N)c(Cl)c1 (stereo not given)	0.245
C[C@H](N)Cc1ccccc1	0.157
COc1cc2c(cc1OC)[C@@]13CCN4CC5=CCO[C@H]6CC(=O)N2[C@H]1[C@H]6[C@H]5C[C@H]43	0.147
COc1cc2ccc(=O)oc2c(OC)c1OC	0.195
O=C1CN2Cc3c(ccc(Cl)c3Cl)N=C2N1	0.0213
C#CCCCCCCCCCCCC(O)CC(O)CO (stereo not given)	0.133
Nc1nc(=S)c2ncn([C@@H]3O[C@H](CO)[C@@H](O)[C@H]3O)c2[nH]1	0.0517
C=C(C)[C@H]1Cc2c(ccc3c2O[C@@H]2COc4cc(OC)c(OC)cc4[C@@H]2C3=O)O1	0.25
CC(C)NCC(O)COc1ccc(COCCOC(C)C)cc1 (stereo not given)	0.185
COc1c2ccoc2nc2c(OC)c(OCC(O)C(C)(C)O)ccc12 (stereo not given)	0.353
Nc1nc(=O)c2nc(CNc3ccc(C(=O)N[C@@H](CCC(=O)O)C(=O)O)cc3)cnc2[nH]1	0.115
CC(=O)N[C@@H](CC(C)C)C(=O)O	0.0889
O=C([O-])[C@H]1/C(=C/CO)O[C@@H]2CC(=O)N21.[Li+]	0.205
